Source: the ROBIN nucleic acid binder screens (doi:10.1002/anie.202211358).

Oligonucleotides screened, 5′ to 3′:
T1: PreQ1 riboswitch RNA pseudoknot, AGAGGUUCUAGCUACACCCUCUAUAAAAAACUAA. From B. subtilis. About 170 hits among about 24,000 compounds.
T2: SAM-II riboswitch RNA pseudoknot, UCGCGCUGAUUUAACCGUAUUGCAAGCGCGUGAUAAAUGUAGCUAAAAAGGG. About 200 hits among about 21,000 compounds.
T3: TPP riboswitch RNA three-way junction, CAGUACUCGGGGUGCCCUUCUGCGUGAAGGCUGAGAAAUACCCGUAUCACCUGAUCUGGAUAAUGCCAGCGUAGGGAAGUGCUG. About 160 hits among about 24,000 compounds.

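Each compound is printed as two spots on a slide made to bind it covalently, so it has no test concentration; the read-out is fluorescence of the bound, labelled oligonucleotide. The data file lists only calls. An earlier report of the laboratory on the PreQ1, TPP and SAM-II riboswitches (doi:10.1038/s41467-019-09493-3) used 1 µM RNA for 2 h and required a mean Z-score above 3 (spot signal-to-noise against the whole library), a score well above that on a control array, and duplicate spots agreeing (coefficient of variation under 100); it then also set aside compounds that hit other targets, which this list keeps. The cut-offs behind this list may differ. These are primary screening calls, not affinities; a compound without a hit may have attached poorly or may still bind in solution.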 A compound is marked Y if it was called a hit and N if it was screened but was not. The compounds are a random part of those screened. A dash means that no call is listed here.

| compound | T1 | T2 | T3 |
|---|---|---|---|
| `Cc1ccc([C@H]2CN(C(=O)CCc3c(C)noc3C)C[C@@H]2N)o1` | N | N | N |
| `CCc1nccn1CCCNc1cc(C(C)C)nc(N)n1` | N | N | N |
| `CCCCOc1ccc(NC(=O)Nc2nnc(C)s2)cc1` | N | N | N |
| `CCOc1cc(S(=O)(=O)NCCCO)ccc1Br` | N | N | N |
| `CCCn1cc(C(=O)N[C@@H](C)[C@H](O)c2ccccc2)c(C)n1` | N | N | N |
| `C=CCNc1oc(C=Cc2ccc(F)cc2)nc1C#N` | N | - | N |
| `CCN1CCN(c2ccc(Nc3cc(N(C)C(=O)Nc4c(Cl)c(OC)cc(OC)c4Cl)ncn3)cc2)CC1` | N | N | N |
| `Cc1n[nH]c2c1C(c1cc(Br)ccc1F)C(C#N)=C(N)O2` (stereo not drawn) | N | N | N |
| `C=CCN(CC=C)C(=O)CN1[C@@H]2CC[C@H]1C[C@@H](O)C2` | N | N | N |
| `Cc1cc(N2CCN(CCO)CC2)n2ncc(-c3ccc(Cl)cc3)c2n1` | N | - | N |
| `O=C1N(CCO)CCCC12CCN(c1nc3ccc(Cl)cc3s1)C2` (stereo not drawn) | N | N | N |
| `CN(C)CCCNC(=O)c1ccc(-c2cc(O)c3ncccc3c2)cc1` | N | N | N |
| `NCc1cc2c(cc1-n1cccc1)OCO2` | N | N | N |
| `Cc1ccc(-c2nnn3c2nc(NC(C)C)c2ccccc23)cc1` | N | N | N |
| `CC(C)(C)NCc1ccc(OCc2ccc3c(c2)OCCO3)cc1` | N | N | N |
| `COc1cccc([C@@H]2CCN(C(=O)c3ncn[nH]3)C[C@H]2O)c1` | N | N | N |
| `Cc1cc(N2CCC(NCCc3cnccn3)CC2)nc(-c2ccccc2)n1` | N | N | N |
| `CC(C)C1(CCNCc2ccccc2)CCOC(C)(C)C1` (stereo not drawn) | N | N | N |
| `COC(=O)c1ccc(NC(=O)CN2CCN(CCO)CC2)cc1` | N | N | N |
| `O=C(O)c1ccc(CN2CCN(Cc3ccccc3CO)CC2)cc1` | N | N | N |
| `CCc1ccc(C2C(C#N)=C(N)OC3=C2S(=O)(=O)N(C)c2ccccc23)cc1` (stereo not drawn) | N | - | N |
| `CC(=O)N(C)c1cccc(-c2ccnc3c(C(=O)c4cccs4)cnn23)c1` | N | N | N |
| `CC(=O)O.Cc1c(-c2ccc(O)cc2)n(Cc2ccc(OCCN3CCCCCC3)cc2)c2ccc(O)cc12` | N | N | N |
| `Cc1cccc(NC2OC(=O)c3ccccc32)c1C` (stereo not drawn) | N | N | N |
| `CCNC(=O)[C@@H]1C[C@@H](N)CN1C(=O)C12CC3CC(C1)CC(n1cncn1)(C3)C2` | N | N | N |
| `COc1ccc(Nc2cc(C)nc3c(C)cccc23)cc1OC` | N | N | N |
| `Cc1cc(C)cc(CN2CCN(C(=O)c3ccc(N)nc3)CC2=O)c1` | N | N | N |
| `COc1cc(CC(O)CC#N)c(OC)c2c1OCO2` (stereo not drawn) | N | N | N |
| `COc1cc(CCc2cc(NC(=O)c3ccc(N4C[C@@H](C)N[C@@H](C)C4)cc3)n[nH]2)cc(OC)c1` | N | N | N |
| `Cc1nc(N)sc1-c1csc(Nc2ncccn2)n1` | N | N | N |
| `Cc1sc2nc(SCCC(C)C)nc(N)c2c1C` | N | N | N |
| `NCCN1CCOCC1` | N | N | N |
| `COCCCNc1nc2c(-c3cccc(C(F)(F)F)c3)nnn2c2ccc(Cl)cc12` | N | N | N |
| `O=C(NCCCNc1cccnc1)C(c1cccnc1)N1CCOCC1` (stereo not drawn) | N | N | N |
| `CC(O)c1nc2ccccc2n1CCc1ccccc1` (stereo not drawn) | N | - | Y |
| `O=C(c1cc[nH]c1)N1CCC2(CCN(CCc3ccccc3)CC2)C(CO)C1` (stereo not drawn) | N | N | N |
| `Cc1cc(NCCCOC2CCCC2)nc(N)n1` | N | N | N |
| `CCOC(=O)c1cnc2ccc(Cl)cc2c1Nc1cccc(C(C)=O)c1` | N | N | N |
| `CCc1ccc(CNc2ncc(-c3cccc(OC)c3)n2C)cc1` | N | N | N |
| `Cc1ccc(Nc2ncnc3c2nc2n3CCCC2)cc1F` | N | - | N |
| `CN(CC1(CO)CCOCC1)C(=O)Nc1ccc(OCC2CCCO2)cc1` (stereo not drawn) | N | N | N |
| `Brc1csc2ncccc12` | N | N | N |
| `COCCN(CC(O)Cn1c2ccccc2c2ccccc21)S(=O)(=O)c1ccc(C)cc1` (stereo not drawn) | N | N | N |
| `COc1ccc(-c2cc(C(F)(F)F)nc(NCc3ccco3)n2)cc1` | N | N | N |
| `CCNC(=O)[C@H]1O[C@@H](n2cnc3c(N)nc(NCCc4ccc(CCC(=O)O)cc4)nc32)[C@H](O)[C@H]1O` | N | N | N |
| `CCOc1ccc([C@@H]2C[C@H](c3ccc(OCC)cc3)n3nc(N)nc3N2)cc1` | N | N | N |
| `COc1ccccc1CNCc1cc(Br)ccc1OC` | N | N | N |
| `COCCNc1oc(-c2ccc(F)cc2)nc1S(=O)(=O)c1ccc(F)cc1` | N | - | N |
| `N[C@H]1CN(C(=O)c2cnc(-c3ccccc3)nc2)C[C@@H]1C1CC1` | N | N | N |
| `Cc1ccc(C#CC(C)(O)C(C)(C)C)cn1` (stereo not drawn) | N | N | N |
| `CN(CCO)c1ccc(C(=O)N2CCCCC2c2ccc(F)cc2)cc1` (stereo not drawn) | N | N | N |
| `CCN(CC)C(=O)[C@@H]1C[C@H](N)CN1C(=O)Cc1cccnc1` | N | N | N |
| `Cc1ccsc1CN(CCN(C)C)C(=O)CN` | N | Y | Y |
| `COc1cccc(CNc2ccc3c(c2)ncn3C)c1` | N | N | N |
| `COc1ccc(-c2nc(N)sc2C)cc1OC` | N | N | N |
| `CC(=O)OCc1cc(-c2nc3ccccc3[nH]c2=O)nn1-c1ccc(Cl)cc1` | N | N | N |
| `CCCc1cc(N2CCC(NCc3cnc(SC)n3C)CC2)nc(C)n1` | N | N | N |
| `Cc1ccc(-c2cssc2=S)cc1` | N | Y | Y |
| `Cc1ccc(CNCc2ccc3c(c2)n(C)c(=O)n3C)cc1` | N | - | N |
| `N#CC1=C(N)OC2=C(CCCC2=Cc2ccccc2)C1c1ccccc1` (stereo not drawn) | N | N | N |
| `COc1cccc2c1=NC(=c1nc(C3CCC(C(=O)O)CC3)n3c1=C(N)N=CN3)C=2` (stereo not drawn) | N | N | N |
| `N#Cc1sc2nc(-c3cccs3)ccc2c1N` | N | N | N |
| `CCn1nc(C(C)C)cc1C(=O)N1CCC(N)C1` (stereo not drawn) | N | N | N |
| `C=CCOC(=O)C1=C(C)OC(N)=C(C#N)C12C(=O)Nc1ccccc12` (stereo not drawn) | N | N | N |
| `Cl.NCCn1nnc2ccccc2c1=O` | N | N | N |
| `CC(N)c1ccc(Br)cc1` (stereo not drawn) | N | N | N |
| `CSCc1noc(CNC(=O)c2cccc(C3CCCNC3)c2)n1` (stereo not drawn) | N | N | N |
| `CN(CCO)CC(=O)N1CCC2(CCNCC2)CC1` | N | N | N |
| `N#CC1=C(N)Oc2c(oc(CO)cc2=O)C1c1ccncc1` (stereo not drawn) | N | N | N |
| `Nc1ccnc(NC2CCCN(CCc3ccccc3)C2)n1` (stereo not drawn) | N | N | N |
| `Cc1ccc(N2C(=O)CC(NC3CCCCC3)C2=O)cc1Cl` (stereo not drawn) | N | N | N |
| `COc1ccc([C@@H]2CNC(=O)C2)cc1OC1CCCC1` | N | N | N |

The first 6 entries again:

| compound | T1 | T2 | T3 |
|---|---|---|---|
| `Cc1ccc([C@H]2CN(C(=O)CCc3c(C)noc3C)C[C@@H]2N)o1` | N | N | N |
| `CCc1nccn1CCCNc1cc(C(C)C)nc(N)n1` | N | N | N |
| `CCCCOc1ccc(NC(=O)Nc2nnc(C)s2)cc1` | N | N | N |
| `CCOc1cc(S(=O)(=O)NCCCO)ccc1Br` | N | N | N |
| `CCCn1cc(C(=O)N[C@@H](C)[C@H](O)c2ccccc2)c(C)n1` | N | N | N |
| `C=CCNc1oc(C=Cc2ccc(F)cc2)nc1C#N` | N | - | N |